According to paper doi:10.1101/405712:
Read-outs that look alike come from different tables or passages of the source. No constants are given. Whether binding was seen depends on the method and setting. Binding seen in cells or lysates may run through a third protein. These calls come from enrichment with a bait or labelling near it, and not all partners need be listed. One block for each molecule: values may come before it.

Amino acid sequences for entries named in this document (tags omitted).
UniProt P56523: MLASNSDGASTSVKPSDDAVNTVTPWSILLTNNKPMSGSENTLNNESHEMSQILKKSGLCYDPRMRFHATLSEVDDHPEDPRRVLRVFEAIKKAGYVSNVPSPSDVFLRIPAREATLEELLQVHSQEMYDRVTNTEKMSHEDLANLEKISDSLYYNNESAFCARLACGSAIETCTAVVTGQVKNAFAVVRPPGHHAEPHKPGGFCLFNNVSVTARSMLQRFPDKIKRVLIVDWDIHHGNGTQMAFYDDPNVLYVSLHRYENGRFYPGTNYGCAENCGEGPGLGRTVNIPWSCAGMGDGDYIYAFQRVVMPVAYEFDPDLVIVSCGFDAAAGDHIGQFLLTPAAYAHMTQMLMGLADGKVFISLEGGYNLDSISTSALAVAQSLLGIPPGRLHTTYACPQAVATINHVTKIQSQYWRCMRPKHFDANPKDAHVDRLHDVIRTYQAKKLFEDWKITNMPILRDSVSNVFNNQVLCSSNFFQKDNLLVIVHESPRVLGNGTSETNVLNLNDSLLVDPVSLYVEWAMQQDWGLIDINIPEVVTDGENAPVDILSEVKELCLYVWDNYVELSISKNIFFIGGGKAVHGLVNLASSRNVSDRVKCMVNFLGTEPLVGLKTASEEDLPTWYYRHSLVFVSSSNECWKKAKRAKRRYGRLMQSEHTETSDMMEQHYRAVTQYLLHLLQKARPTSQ

Tests used:
[1] = molecular target: Ccq1^HA (S. pombe) (UniProt Q10432); test: affinity purification with mass spectrometry
[2] = molecular target: Ccq1^HA (S. pombe) (UniProt Q10432); test: affinity purification with mass spectrometry; remark: listed apart in the source

binding [1]: binds
binding [2]: binds
Molecule: Clr3 (from UniProt P56523 1-687) (enzyme)

binding [1]: binds
binding [2]: binds
B1: Hip1 (protein, UniProt P87314 1-932)
chain: MKIKKIPWLGHFDDRGHRLSIFSIHIHPDGSRIATGGLDGTIRIWSTEAINRENENENENEDLPKQLCCMSTHTGTVTSVRFSPNGQYLASGSDDRVVIIWHKEEAIPGLGSTFGSGEKHTENWRSYRRLLGHDNDIQDLCWSYDSQLVVSVGLDSSIIVWNGTTFERLKRIEAHQSHVKGITFDPAGKYFATESDDRTIKVWRVSDFSIEKTITGPFNNSPLSTYFRRPSWSPDGKHIAAPNAMNGPVSCVSIIERGTWTSEINLIGHEGPVEVTAFNPKLFRDKNDKLVCILACGGQDRSLSIWSSALPRPLLSCQNVFQKSIGDVCWSPDGLSLFLCSYDGNVLVCTFEKEEFGDMVSDEEISKALAKYGHGRHGIVLPESAKQLELEETAYAILKKPSSLSTTDPTLVPQSSSTPKSAQKTPQKLPAFLPNRLTAETVDTNKLTASKEQIASPKRPGPSDNGNEIPTKFVQKVTITKEGKKRVAPQLLTTLSATPSTSRLASTQLQHTGSSQLPPQQFSQPINSLPKGGVPILIVGNKTKVNHENDESDQALQEEKIEEGLLKNYYSSLIDSSTSISNINFEAPRYKTNIVHSLNNEQKYVLEVKNGTSEKNPTRIVALENGNTKWMDYLPRPVILVTGSIHFWSIACDDGSLHLYSLTGSRLLPPIMIESKASFLHCNNAYLLCISSSGMVYAWNVVNKTALFTANSLAPILSRVSNNVTIENNSTDIPHVVIASISKEGVPSVTLSTGETYVYSSTMLCWQRITEPWWAIGSREWDSSGLLQSNTQTESQPLKIYEHRTNNVLMDSGRGKLLQKMVADAITEEGYDDFETIVTINHLENKIASARLLKLDDEFLVTSEVYVRLLMHHGLWQKLEEFLGELRTQTKCSIKLSGREVVAKMLVVLRQAVQTDNEFDRANKLIEKYAST
